Measured values from the supplement of paper PMC12823440, “Inhibitors supercharge kinase turnover through native proteolytic circuits” (Nature, 2025).
Structures can show the parent of a compound that is named as a salt. The list shows a part of the results. The calls rarely recur for the same compound in another form.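 Kinases were expressed as nanoluciferase fusions in K562 cells and luminescence was read every 4 h between 2 and 18 h as percent of control, DMSO set to 100% and a positive control to 0%. A time point counts as decreased when the signal drops significantly (2 sigma). The hit call is the authors' own, does not follow from the count of time points alone, and its rule is not shown.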

Protein sequences, listed by entry. Tags and fused reporters are not part of them. Lines headed by an entry give the natural chain unless they say otherwise; changes in a name come on top.
UniProt Q05397, whole entry, looked up: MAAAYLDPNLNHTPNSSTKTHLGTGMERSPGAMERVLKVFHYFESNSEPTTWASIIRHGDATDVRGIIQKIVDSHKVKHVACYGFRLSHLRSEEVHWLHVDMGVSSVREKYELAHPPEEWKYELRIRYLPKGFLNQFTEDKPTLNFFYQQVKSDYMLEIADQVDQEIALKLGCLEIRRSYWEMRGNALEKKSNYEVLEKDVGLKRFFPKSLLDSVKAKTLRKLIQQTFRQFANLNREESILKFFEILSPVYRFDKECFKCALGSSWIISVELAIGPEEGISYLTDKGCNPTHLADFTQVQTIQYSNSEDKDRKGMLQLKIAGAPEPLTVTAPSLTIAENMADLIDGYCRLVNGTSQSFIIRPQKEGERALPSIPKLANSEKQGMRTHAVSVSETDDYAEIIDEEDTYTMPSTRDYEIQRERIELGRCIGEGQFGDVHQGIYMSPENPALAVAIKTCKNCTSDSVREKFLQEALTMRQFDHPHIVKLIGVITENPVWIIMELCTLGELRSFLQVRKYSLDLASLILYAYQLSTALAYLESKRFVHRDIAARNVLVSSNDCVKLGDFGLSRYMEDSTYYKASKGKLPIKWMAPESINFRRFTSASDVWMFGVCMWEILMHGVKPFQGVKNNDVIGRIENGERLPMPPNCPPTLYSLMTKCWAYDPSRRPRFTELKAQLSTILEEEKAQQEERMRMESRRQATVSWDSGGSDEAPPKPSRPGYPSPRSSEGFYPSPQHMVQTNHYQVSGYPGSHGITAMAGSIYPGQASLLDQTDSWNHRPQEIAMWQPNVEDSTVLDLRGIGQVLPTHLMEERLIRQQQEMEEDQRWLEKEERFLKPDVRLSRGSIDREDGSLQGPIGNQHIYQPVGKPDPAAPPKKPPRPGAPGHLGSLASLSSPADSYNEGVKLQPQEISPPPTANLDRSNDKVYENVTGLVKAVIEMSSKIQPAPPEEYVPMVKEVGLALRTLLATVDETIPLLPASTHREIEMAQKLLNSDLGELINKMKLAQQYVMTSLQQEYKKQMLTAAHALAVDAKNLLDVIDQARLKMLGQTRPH
UniProt Q14289, whole entry, looked up: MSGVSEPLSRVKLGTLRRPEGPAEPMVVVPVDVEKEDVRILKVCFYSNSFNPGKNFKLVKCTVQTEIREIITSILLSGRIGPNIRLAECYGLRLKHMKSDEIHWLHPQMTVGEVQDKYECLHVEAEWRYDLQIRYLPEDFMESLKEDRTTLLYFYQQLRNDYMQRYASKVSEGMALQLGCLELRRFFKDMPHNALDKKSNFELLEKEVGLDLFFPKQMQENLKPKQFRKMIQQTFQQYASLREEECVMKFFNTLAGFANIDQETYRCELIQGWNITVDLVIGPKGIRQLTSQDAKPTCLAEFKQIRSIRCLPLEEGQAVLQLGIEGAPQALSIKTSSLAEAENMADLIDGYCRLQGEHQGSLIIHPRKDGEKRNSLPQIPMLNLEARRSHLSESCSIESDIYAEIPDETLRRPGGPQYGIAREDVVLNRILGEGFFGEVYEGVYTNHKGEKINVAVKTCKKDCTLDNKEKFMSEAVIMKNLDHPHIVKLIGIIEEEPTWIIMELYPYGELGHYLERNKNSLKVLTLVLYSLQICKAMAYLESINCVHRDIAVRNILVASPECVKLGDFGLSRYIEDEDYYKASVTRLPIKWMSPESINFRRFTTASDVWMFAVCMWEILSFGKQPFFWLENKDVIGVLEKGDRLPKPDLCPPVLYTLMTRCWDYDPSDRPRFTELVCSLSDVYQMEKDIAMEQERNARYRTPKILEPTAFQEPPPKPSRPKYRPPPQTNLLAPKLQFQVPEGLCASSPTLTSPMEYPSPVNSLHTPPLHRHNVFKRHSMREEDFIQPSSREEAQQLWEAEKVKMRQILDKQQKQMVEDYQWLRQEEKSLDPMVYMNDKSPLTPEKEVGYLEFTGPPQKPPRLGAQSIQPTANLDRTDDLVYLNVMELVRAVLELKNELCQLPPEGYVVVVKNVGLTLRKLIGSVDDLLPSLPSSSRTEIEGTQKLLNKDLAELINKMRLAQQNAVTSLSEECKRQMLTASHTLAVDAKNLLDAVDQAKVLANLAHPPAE
UniProt P07949, whole entry, looked up: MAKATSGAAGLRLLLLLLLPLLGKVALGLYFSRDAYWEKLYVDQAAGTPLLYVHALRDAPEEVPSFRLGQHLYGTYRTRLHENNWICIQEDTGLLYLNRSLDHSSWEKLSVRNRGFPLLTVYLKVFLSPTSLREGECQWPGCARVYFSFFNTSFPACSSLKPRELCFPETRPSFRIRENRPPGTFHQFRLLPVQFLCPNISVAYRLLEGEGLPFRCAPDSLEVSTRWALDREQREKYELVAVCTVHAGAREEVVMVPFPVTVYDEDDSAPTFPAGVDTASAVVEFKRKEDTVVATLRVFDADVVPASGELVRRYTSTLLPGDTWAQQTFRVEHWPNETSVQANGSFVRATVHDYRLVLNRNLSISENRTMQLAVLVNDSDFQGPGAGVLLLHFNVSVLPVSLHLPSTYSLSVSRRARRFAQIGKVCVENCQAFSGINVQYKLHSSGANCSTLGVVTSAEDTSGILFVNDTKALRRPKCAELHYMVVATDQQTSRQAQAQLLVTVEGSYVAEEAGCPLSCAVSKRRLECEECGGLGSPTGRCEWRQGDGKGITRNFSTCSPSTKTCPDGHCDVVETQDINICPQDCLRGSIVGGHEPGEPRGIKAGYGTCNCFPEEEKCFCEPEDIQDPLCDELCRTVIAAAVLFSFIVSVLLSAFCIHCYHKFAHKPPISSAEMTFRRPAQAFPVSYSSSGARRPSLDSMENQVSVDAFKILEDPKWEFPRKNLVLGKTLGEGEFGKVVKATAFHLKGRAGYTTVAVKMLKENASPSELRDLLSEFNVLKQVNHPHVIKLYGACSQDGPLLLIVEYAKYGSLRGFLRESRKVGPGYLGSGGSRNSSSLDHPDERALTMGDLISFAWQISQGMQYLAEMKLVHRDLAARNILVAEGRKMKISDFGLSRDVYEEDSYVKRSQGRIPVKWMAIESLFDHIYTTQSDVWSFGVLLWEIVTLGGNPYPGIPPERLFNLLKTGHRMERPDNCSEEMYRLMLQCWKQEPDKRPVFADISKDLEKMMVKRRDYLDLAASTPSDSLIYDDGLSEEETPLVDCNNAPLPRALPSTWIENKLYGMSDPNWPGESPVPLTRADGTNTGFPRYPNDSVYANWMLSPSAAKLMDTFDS
UniProt P07949, whole entry M918T, looked up: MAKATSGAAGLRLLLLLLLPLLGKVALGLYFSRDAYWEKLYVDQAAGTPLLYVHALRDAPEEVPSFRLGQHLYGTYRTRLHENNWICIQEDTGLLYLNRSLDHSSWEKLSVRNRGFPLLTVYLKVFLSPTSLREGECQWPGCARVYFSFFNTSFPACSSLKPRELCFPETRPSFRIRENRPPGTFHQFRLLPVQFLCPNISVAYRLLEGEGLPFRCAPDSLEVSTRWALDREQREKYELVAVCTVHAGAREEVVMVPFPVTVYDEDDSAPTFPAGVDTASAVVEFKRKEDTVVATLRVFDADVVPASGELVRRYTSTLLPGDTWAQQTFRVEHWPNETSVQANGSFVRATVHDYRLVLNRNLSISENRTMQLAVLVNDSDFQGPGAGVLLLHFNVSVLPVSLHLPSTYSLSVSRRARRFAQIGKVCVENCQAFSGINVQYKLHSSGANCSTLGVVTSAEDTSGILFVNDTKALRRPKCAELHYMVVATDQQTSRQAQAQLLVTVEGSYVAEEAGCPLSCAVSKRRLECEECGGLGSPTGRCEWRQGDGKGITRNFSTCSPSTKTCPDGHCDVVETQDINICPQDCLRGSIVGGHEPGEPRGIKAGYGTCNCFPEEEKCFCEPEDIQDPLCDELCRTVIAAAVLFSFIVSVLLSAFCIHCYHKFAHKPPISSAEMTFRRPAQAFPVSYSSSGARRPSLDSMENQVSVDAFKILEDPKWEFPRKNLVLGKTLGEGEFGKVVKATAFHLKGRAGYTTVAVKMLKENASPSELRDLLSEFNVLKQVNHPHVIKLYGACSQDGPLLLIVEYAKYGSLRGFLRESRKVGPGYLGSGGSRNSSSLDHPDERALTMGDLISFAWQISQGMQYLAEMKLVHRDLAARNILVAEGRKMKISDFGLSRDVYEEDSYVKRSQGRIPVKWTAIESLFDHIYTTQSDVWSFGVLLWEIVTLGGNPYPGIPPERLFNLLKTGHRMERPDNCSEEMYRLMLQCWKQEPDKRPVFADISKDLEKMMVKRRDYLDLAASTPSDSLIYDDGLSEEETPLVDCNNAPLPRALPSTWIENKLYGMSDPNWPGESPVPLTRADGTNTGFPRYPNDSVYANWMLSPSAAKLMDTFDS
UniProt Q9BRS2: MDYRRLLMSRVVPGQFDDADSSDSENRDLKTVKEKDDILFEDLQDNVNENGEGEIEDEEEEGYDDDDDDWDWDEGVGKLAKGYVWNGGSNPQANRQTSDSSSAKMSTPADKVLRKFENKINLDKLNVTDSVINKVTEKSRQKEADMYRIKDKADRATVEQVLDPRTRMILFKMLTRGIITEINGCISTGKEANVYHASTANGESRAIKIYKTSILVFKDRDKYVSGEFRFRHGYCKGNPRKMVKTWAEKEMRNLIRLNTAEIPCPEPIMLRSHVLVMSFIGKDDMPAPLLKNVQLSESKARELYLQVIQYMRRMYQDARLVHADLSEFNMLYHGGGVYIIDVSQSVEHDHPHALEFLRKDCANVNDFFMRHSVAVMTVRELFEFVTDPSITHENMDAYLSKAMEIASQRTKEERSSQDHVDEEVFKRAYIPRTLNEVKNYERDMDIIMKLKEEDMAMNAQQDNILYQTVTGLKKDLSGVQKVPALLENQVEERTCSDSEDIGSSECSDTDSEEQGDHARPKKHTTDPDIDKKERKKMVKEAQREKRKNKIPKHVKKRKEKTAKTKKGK
UniProt Q13546: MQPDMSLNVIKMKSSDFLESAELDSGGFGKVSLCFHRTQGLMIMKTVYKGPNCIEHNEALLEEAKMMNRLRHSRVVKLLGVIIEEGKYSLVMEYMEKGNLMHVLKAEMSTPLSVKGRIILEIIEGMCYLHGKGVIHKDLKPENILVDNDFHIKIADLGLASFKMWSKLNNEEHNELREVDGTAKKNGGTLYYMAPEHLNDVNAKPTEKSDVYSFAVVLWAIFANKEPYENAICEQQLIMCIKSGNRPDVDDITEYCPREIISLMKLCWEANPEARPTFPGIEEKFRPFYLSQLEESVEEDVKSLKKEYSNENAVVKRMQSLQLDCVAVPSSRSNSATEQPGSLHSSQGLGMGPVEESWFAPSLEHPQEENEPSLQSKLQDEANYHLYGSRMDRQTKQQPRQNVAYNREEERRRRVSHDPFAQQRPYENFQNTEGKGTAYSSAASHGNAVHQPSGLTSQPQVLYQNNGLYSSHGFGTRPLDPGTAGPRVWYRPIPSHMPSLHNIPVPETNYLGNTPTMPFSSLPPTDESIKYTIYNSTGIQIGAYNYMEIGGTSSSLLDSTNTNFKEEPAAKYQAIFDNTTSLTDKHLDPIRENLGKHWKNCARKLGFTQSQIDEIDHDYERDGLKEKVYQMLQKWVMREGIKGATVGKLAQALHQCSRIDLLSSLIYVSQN

Experiments:
Assay in all cases: number of time points (of 5) at which kinase-Nluc abundance scored as decreased, DMSO-normalised (count); higher = more persistent destabilization
Conditions in all cases: K562; 2-18 h
[1] = biological target: PRKCA (UniProt P17252)
[2] = biological target: PTK2 (UniProt Q05397)
[3] = biological target: PTK2B (UniProt Q14289)
[4] = biological target: RAF1 (UniProt P04049)
[5] = biological target: RAF1_S257L (clone: RAF1_mut) (UniProt P04049)
[6] = biological target: RET (UniProt P07949)
[7] = biological target: RET_M918T (clone: RET_mut) (UniProt P07949)
[8] = biological target: RIOK1 (UniProt Q9BRS2)
[9] = biological target: RIPK1 (UniProt Q13546)
[10] = biological target: RIPK2 (UniProt O43353)

Measured: number of time points

Cc1ccccc1-n1c([C@H](C)Nc2nc(N)nc3nc[nH]c23)nc2cccc(C)c2c1=O [CAL-130 (Hydrochloride)] (10 µM)
0: all assays above

COc1ccc2c(OCc3nnc4ccc(-c5ccccc5)nn34)ccnc2c1 (2 µM)
0: all assays above

COc1cc(Nc2ncc(F)c(Nc3ccc4c(n3)NC(=O)C(C)(C)O4)n2)cc(OC)c1OC (10 µM)
not listed: [3] | [6] | [7]
0: all other assays above

CC1=C(C(=O)O)N2C(=O)[C@@H](NC(=O)[C@H](N)C3=CCC=CC3)[C@H]2SC1 [Cephradine] (10 µM)
0: all assays above

Cc1[nH]c(/C=C2\C(=O)Nc3ccc(F)cc32)c(C)c1C(=O)N[C@H]1CCN(C(=O)N(C)C)C1 [Vorolanib] (10 µM)
0: all assays above

COc1ccc(-c2ccc3c(N4CCOCC4)nc(N4C[C@@H](C)O[C@@H](C)C4)nc3n2)cc1CO (2.5 µM)
0: all assays above

COc1cc(Nc2ncc(F)c(Nc3ccc4c(n3)NC(=O)C(C)(C)O4)n2)cc(OC)c1OC [R406 (free base)] (10 µM)
not listed: [3] | [6] | [7]
0: all other assays above

CN(CC(=O)N(Cc1ccc(C2CCCCC2)cc1)c1ccc(C(=O)NO)cc1)S(=O)(=O)c1c(F)c(F)c(F)c(F)c1F (2.5 µM)
0: all assays above

CN1CCN(c2cnc3c(C4CCN(C(=O)c5ccc(OC(F)(F)F)cc5N)CC4)ncnc3c2)CC1 (10 µM)
0: all assays above

COc1cc2c(cc1OC)CN(S(=O)(=O)c1ccc(OC)c(N3CCN(C(=O)c4ccc(F)cc4C(F)(F)F)CC3)c1)CC2 (10 µM)
0: all assays above

Nc1ncnc2c1c(-c1cccc(OCc3ccccc3)c1)cn2C1CC(CN2CCC2)C1 (stereo unspecified) (2.5 µM)
0: all assays above

Cn1cnc(Cn2ccc3ccc(CNCc4[nH]c5ccccc5c4[C@H]4NC(=O)c5ccc(O)cc54)cc32)c1 (10 µM)
0: all assays above

O=C([O-])c1cc2ccccc2c(Cc2c(O)c(C(=O)[O-])cc3ccccc23)c1O.[Na+].[Na+] [Pamoic acid (disodium)] (10 µM)
0: all assays above

Cc1c(-c2c(F)cc(C(N)=O)c3[nH]c4c(c23)CC[C@H](C(C)(C)O)C4)cccc1-n1c(=O)c2cccc(F)c2n(C)c1=O (2.5 µM)
0: all assays above

C[C@@H]1CCN(C(=O)CC#N)C[C@@H]1N(C)c1ncnc2[nH]ccc12 [Tofacitinib] (10 µM)
not listed: [3]
0: all other assays above

NCCNS(=O)(=O)c1cccc2c(Cl)cccc12 [A-3 (hydrochloride)] (10 µM)
0: all assays above

Cc1nc(-c2cn3c(n2)-c2ccc(-c4cnn(C(C)(C)C(N)=O)c4)cc2OCC3)n(C(C)C)n1 [Taselisib] (10 µM)
0: all assays above

Cn1cnc2c(F)c(Nc3ccc(Br)cc3Cl)c(C(=O)NOCCO)cc21 [Selumetinib (sulfate)] (10 µM)
0: all assays above

O=C(O)CCC(=O)Nc1ccc(Br)cn1 [Bikinin] (10 µM)
0: all assays above

C=CC(=O)Nc1cc(Nc2ncc(Cl)c(-c3c[nH]c4ccccc34)n2)c(OC)cc1N(C)CCN(C)C [Mutant EGFR inhibitor] (2.5 µM)
3: [5]
1: [9]
2: [2] | [4] | [8]
0: all other assays above

O=C(N/N=C/c1coc2ccccc2c1=O)c1cccnc1 (10 µM)
0: all assays above

Cc1cc2ncc(-c3ccc(O)c(O)c3)nc2cc1C [Tyrphostin AG1433] (10 µM)
4: [10]
0: all other assays above

Cc1ccc2nc(NCCN)c3ncc(C)n3c2c1 (2.5 µM)
not listed: [9]
0: all other assays above

O=C(NOCC(O)CO)c1cc(Br)c(F)c(F)c1Nc1ccc(I)cc1F (stereo unspecified) (2.5 µM)
0: all assays above

NC(=O)c1ccc(-c2nc(-c3ccc4c(c3)OCCO4)c(-c3ccccn3)[nH]2)cc1 (10 µM)
0: all assays above

Cn1cc(-c2cnn3c(N)c(Br)c([C@@H]4CCCNC4)nc23)cn1 (2.5 µM)
0: [1] | [2] | [9]
3: [5]
2: [3] | [4] | [6]
1: all other assays above

Cc1cc(O)c2c(c1)C(=O)c1cc(O)cc(O)c1C2=O [Emodin] (10 µM)
0: all assays above

Cc1cc(CN2CCN(c3c(Br)cnc4nc(-c5ccc(N6CCN(C)CC6)cc5)[nH]c34)CC2)no1 (2.5 µM)
1: [1]
0: all other assays above

O=C(Nc1ccc(CN2CCOCC2)cc1)c1ccc(-c2cccc(Cl)c2)o1 (10 µM)
0: all assays above

C[C@@]1(c2ncncc2F)NC(=O)c2cc(-c3cn[nH]c3)ccc21 (10 µM)
0: all assays above

COc1cc(OC2CCN(C)CC2)ccc1Nc1ncc2c(n1)n(C1CCCC1)c(=O)n2C (10 µM)
0: all assays above

C[C@@H]1CCN(C(=O)CC#N)C[C@@H]1N(C)c1ncnc2[nH]ccc12 [Tofacitinib (citrate)] (10 µM)
not listed: [3]
0: all other assays above

CNc1nc(Nc2ccc(C(=O)N3CCOCC3)cc2OC)nc2[nH]cc(Cl)c12 (2.5 µM)
0: all assays above
